PubChem BioAssay AID504804 – Drosophila RNAi Screening Center, 2011
In all, the deposit lists about 19,000 reagents; shown is an unselected part of those with a known target gene and a result. Of all reagents, 47 (0.25%) are marked active. 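Signals are raw, not normalised; exact z-scores behind calls not deposited; actives needed confirmation, so some wells reaching 2 SD are inactive.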 Unmarked entries are inactive. The numbers tell different reagents against one gene apart. Names joined by + are all predicted targets of the reagent. No sequences are given here.

Purpose: 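dsRNAs that improve Kc cell survival under doxorubicin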 (primary screen)
Cells: Drosophila Kc cells
Knock-down reagent: long dsRNA against Drosophila genes, 0.5 µg dsRNA per well
Time to read-out: 96 h (48 h knock-down, then 48 h drug)
Conditions: doxorubicin 5 µg/ml for 48 h, added 48 h after dsRNA
Detection: 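Luminescent ATP counts per replicate, not normalised, reflecting viable cells after 48 h dsRNA knock-down followed by 48 h of 5 µg/ml doxorubicin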
Reading the numbers: raw ATP luminescence: higher = more viable cells, protection from doxorubicin
Active means: 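Active when both duplicate wells lie at least 2 SD above the plate mean and protection is confirmed by rescreening and independent dsRNAs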

For PGRP-SB1 (Peptidoglycan recognition protein SB1), what was measured?
raw ATP luminescence, replicate 1: 40153; raw ATP luminescence, replicate 2: 43180

With Loxl1 (Lysyl oxidase-like 1), what does the deposit list?
raw ATP luminescence, replicate 1: 48150; raw ATP luminescence, replicate 2: 56570

Which result is listed for mtgo (miles to go) #1?
raw ATP luminescence, replicate 1: 37640; raw ATP luminescence, replicate 2: 34717

With mtgo (miles to go) #2, what does the deposit list?
raw ATP luminescence, replicate 1: 65207; raw ATP luminescence, replicate 2: 63953

For mtgo (miles to go) #3, how do the results read?
raw ATP luminescence, replicate 1: 77437; raw ATP luminescence, replicate 2: 69820

What did the screen give for CG5435?
raw ATP luminescence, replicate 1: 76093; raw ATP luminescence, replicate 2: 75697

For osk (oskar), what was measured?
raw ATP luminescence, replicate 1: 54880; raw ATP luminescence, replicate 2: 28627

With CG10991 (retired record), what was measured?
raw ATP luminescence, replicate 1: 63627; raw ATP luminescence, replicate 2: 62360

For Gpo2 (Glycerophosphate oxidase 2), what was measured?
raw ATP luminescence, replicate 1: 60900; raw ATP luminescence, replicate 2: 79563

For CG4000, what was measured?
raw ATP luminescence, replicate 1: 60350; raw ATP luminescence, replicate 2: 80140

Single entries from the list:
Result for mtgo (miles to go) #1 under “raw ATP luminescence, replicate 1”: 37640
PGRP-SB1 (Peptidoglycan recognition protein SB1), raw ATP luminescence, replicate 1: 40153
Entry for mtgo (miles to go) #3 in “raw ATP luminescence, replicate 1”: 77437
For “raw ATP luminescence, replicate 1”, mtgo (miles to go) #2 reads 65207

The list goes on.
What is on record for CG8543?
raw ATP luminescence, replicate 1: 87083; raw ATP luminescence, replicate 2: 83240

For CG15912, what was measured?
raw ATP luminescence, replicate 1: 43170; raw ATP luminescence, replicate 2: 43490

What is on record for CG14618?
raw ATP luminescence, replicate 1: 2.72e5; raw ATP luminescence, replicate 2: 2.90e5

Which result is listed for Rab9Db + Rab9D + Rab9Fa + 1 more?
raw ATP luminescence, replicate 1: 1.81e5; raw ATP luminescence, replicate 2: 2.12e5

For CG4377, how do the results read?
raw ATP luminescence, replicate 1: 72107; raw ATP luminescence, replicate 2: 52283

With barc (barricade), what was measured?
raw ATP luminescence, replicate 1: 30307; raw ATP luminescence, replicate 2: 28247

For CG9586, what does the deposit list?
raw ATP luminescence, replicate 1: 39540; raw ATP luminescence, replicate 2: 89847

How did the screen score CG13059?
raw ATP luminescence, replicate 1: 45383; raw ATP luminescence, replicate 2: 30040

What is on record for CG34300?
raw ATP luminescence, replicate 1: 2.22e5; raw ATP luminescence, replicate 2: 2.27e5

What did the screen give for CG6763?
raw ATP luminescence, replicate 1: 77740; raw ATP luminescence, replicate 2: 69980

For Oatp33Eb (Organic anion transporting polypeptide 33Eb), what does the deposit list?
raw ATP luminescence, replicate 1: 60750; raw ATP luminescence, replicate 2: 77767

For CG6675, what does the deposit list?
raw ATP luminescence, replicate 1: 43833; raw ATP luminescence, replicate 2: 49287

Which result is listed for betaTub65B (beta-Tubulin at 65B)?
raw ATP luminescence, replicate 1: 74383; raw ATP luminescence, replicate 2: 79560

For CG17929, what was measured?
raw ATP luminescence, replicate 1: 96110; raw ATP luminescence, replicate 2: 77030

For aurB (aurora B), what was measured?
raw ATP luminescence, replicate 1: 98307; raw ATP luminescence, replicate 2: 61467

For abs (abstrakt), what does the deposit list?
raw ATP luminescence, replicate 1: 20283; raw ATP luminescence, replicate 2: 21667

For CG15322, what does the deposit list?
raw ATP luminescence, replicate 1: 2.09e5; raw ATP luminescence, replicate 2: 1.88e5

What is on record for CG31473?
raw ATP luminescence, replicate 1: 61003; raw ATP luminescence, replicate 2: 78803
